Measurements from PMC7819943, “Rice protein-binding microarrays: a tool to detect cis-acting elements near promoter regions in rice”.
This is one part of the list.

Amino acid sequences for entries named in this document (tags omitted).
UniProt Q0JBA9, entry or part of it: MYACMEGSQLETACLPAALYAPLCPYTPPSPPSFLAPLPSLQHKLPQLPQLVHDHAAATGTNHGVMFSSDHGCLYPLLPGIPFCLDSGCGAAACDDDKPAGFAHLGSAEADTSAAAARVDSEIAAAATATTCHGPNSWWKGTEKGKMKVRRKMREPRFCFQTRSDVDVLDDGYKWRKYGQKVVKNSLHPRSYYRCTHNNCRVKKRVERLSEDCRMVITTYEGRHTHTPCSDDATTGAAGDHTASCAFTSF

What follows are sequences tested against OsWRKY34 (Oryza sativa, UniProt Q0JBA9 1-250) (assay: protein-binding microarray (RPBM); PBS, 2% BSA, 51.3 ng/ul salmon testes DNA, 50 uM zinc acetate, 200 nM TF, 25 C, 1 h; high values mean tight binding). Settings: protein: recombinant; tags: N-terminal polyhistidine and DsRed monomer fusion (pET32a); label: CyDye5-dUTP incorporated in the synthesized complementary strand; 3' TTTTT single-stranded linker to array surface; dsDNA, one strand shown.
How it was run: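 Transcription factors were made in E. coli BL21-CodonPlus as N-terminal fusions to a polyhistidine tag and DsRed, then purified on Ni–NTA. After primer extension with Cy5-dUTP and blocking with 2% BSA, a custom Agilent array was exposed for 1 h at 25 °C to 200 nM protein in PBS, 2% BSA, salmon testes DNA and 50 µM zinc acetate. Washed arrays were scanned on an Axon 4000B, and the binding signal is per-feature fluorescence intensity in arbitrary units.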
For “TGCATAGTCACACGACCGACGGGAAGCTTTTTTATATTATCGGAGTCACCTAGTGCAG”, the binding signal was 8240 fluorescence intensity (a.u.). For “TCTTCAGTTGCTTATTTTCGATATTGTTAACCGGACTTCACGGAGTCACCTAGTGCAG”, the binding signal was 13300 fluorescence intensity (a.u.). With “CTCATCTCTGGAAATTTCAGATCTGCGCGGTAAAATCAATCGGAGTCACCTAGTGCAG” the binding signal was 10600 fluorescence intensity (a.u.). In the case of “ATCGCCGCCGCCTCCAGGACCACGTCTTCGTCCTCGAGGACGGAGTCACCTAGTGCAG”, the binding signal is reported as 8660 fluorescence intensity (a.u.). With “AACCCCACTTTTATTCACTTAGATGGTCCCATATGTCATCCGGAGTCACCTAGTGCAG” the binding signal was 8670 fluorescence intensity (a.u.). With “GCCTTTTCTAAATTATTTTTCACTTTTCTGATTTTTTAAACGGAGTCACCTAGTGCAG” the binding signal was 8790 fluorescence intensity (a.u.). For “CCATAGTAGTATAGCTTGATTATTGTGTTTACTGGCTACACGGAGTCACCTAGTGCAG”, the binding signal was 8192 fluorescence intensity (a.u.). “ACCACCACCTTTTTCCAGCTAGCACTGCAATTAAACAATCCGGAGTCACCTAGTGCAG” was tested, and the binding signal was 9120 fluorescence intensity (a.u.). With “TGTATCGTCATCTGCTGTATCTACAGTCTTCAATTAAGTTCGGAGTCACCTAGTGCAG” the binding signal was 8720 fluorescence intensity (a.u.). In the case of “GAGTTTACACTTATGCCCCTGGGTTTATTTTATTTTTATTCGGAGTCACCTAGTGCAG”, the binding signal is reported as 9250 fluorescence intensity (a.u.). With “TTTGTCAGCACCATTAAACTGTTGGCGTTTAGTGTTCACTCGGAGTCACCTAGTGCAG” the binding signal was 8310 fluorescence intensity (a.u.). With “AGAGTGGGGCTTGGTGTCGGGTTTTTAGGATTAAGTTTTGCGGAGTCACCTAGTGCAG” the binding signal was 14500 fluorescence intensity (a.u.). With “TCCTAGGCGATCTCACATTTTTTGTTGCGTTTCTCCGCCCCGGAGTCACCTAGTGCAG” the binding signal was 8850 fluorescence intensity (a.u.). In the case of “ATCTCTCTTTGCGGTCTTTACTACCCACTACGCCTAACCCCGGAGTCACCTAGTGCAG”, the binding signal is reported as 9100 fluorescence intensity (a.u.). With “TGTGTGGGCTTAATAATTGTGGGGTAGATTTGCATTTGCACGGAGTCACCTAGTGCAG” the binding signal was 15900 fluorescence intensity (a.u.). For “CCCTCCGAATCGATCGCCGGCCGGCCGCCCGCCCGCCACCCGGAGTCACCTAGTGCAG”, the binding signal was 8550 fluorescence intensity (a.u.). “AAAAAACAATTTTCGTTTGCAGCGGTCGACATTTTTCTTCCGGAGTCACCTAGTGCAG” was tested, and the binding signal was 9580 fluorescence intensity (a.u.). For “ACTCCTTACGTATTCGGCTGAGTTCTTTTACCAACTTTTCCGGAGTCACCTAGTGCAG”, the binding signal was 9780 fluorescence intensity (a.u.). In the case of “CGCATGCCGTGTGCCTGAGCTTTTCTCGTGCTATCACAGTCGGAGTCACCTAGTGCAG”, the binding signal is reported as 9280 fluorescence intensity (a.u.). With “TGTCTGTCCATGTCCAAGGAGACTGATTTATCTTTTTTCTCGGAGTCACCTAGTGCAG” the binding signal was 8380 fluorescence intensity (a.u.). With “TTTTTTTATTATTTTTCCGGGATTCATTTGCCACGTCAATCGGAGTCACCTAGTGCAG” the binding signal was 8040 fluorescence intensity (a.u.). For “AAGTATCTCTTACTCCGTCTTTGCTTGGCTCATCGATTGCCGGAGTCACCTAGTGCAG”, the binding signal was 9900 fluorescence intensity (a.u.). With “CCCTTTCATATCAGGAGGCTGGCGTAGTGGACGGGCGGGGCGGAGTCACCTAGTGCAG” the binding signal was 11400 fluorescence intensity (a.u.). For “AGCTATTCCGTTCGTTATCCCAGTTAGCTAGCTAGAATCTCGGAGTCACCTAGTGCAG”, the binding signal was 10500 fluorescence intensity (a.u.). For “TTTCTTCCACTTCTCTCGCAGGCTGTTGAATAATCTTTTCCGGAGTCACCTAGTGCAG”, the binding signal was 11700 fluorescence intensity (a.u.). With “TTTAAGCTTTCCATCTTGAAAAAAAAATGGCGTTGACCGGCGGAGTCACCTAGTGCAG” the binding signal was 11100 fluorescence intensity (a.u.). “GGTAGAGAAGACGAGGAGTAGGAGGGGTGGTTGGTGCCGACGGAGTCACCTAGTGCAG” was tested, and the binding signal was 9970 fluorescence intensity (a.u.). For “CTTCTTGCTTTCATCGTTGGTTCTTTTGAGATCACTTTCACGGAGTCACCTAGTGCAG”, the binding signal was 12100 fluorescence intensity (a.u.). For “TCTACTCGCGGCCTTCCGTTCCAATATGCTATCTGCCTCTCGGAGTCACCTAGTGCAG”, the binding signal was 9600 fluorescence intensity (a.u.). In the case of “CGACGCGTCCCTCCTCCTTCTCGCTGTCCCCGACCATTTCCGGAGTCACCTAGTGCAG”, the binding signal is reported as 11700 fluorescence intensity (a.u.). For “TTTTGCTGACTAGGATGCCACGTCGAAACCACCCATACATCGGAGTCACCTAGTGCAG”, the binding signal was 8660 fluorescence intensity (a.u.). With “TTGATGGTTGTGCTATGTTTTGTCCAACATTTTATCTTTCCGGAGTCACCTAGTGCAG” the binding signal was 9360 fluorescence intensity (a.u.). “GACCTCCTCGCCTCATCCACTCTTTGCCTGCCTCCGCGACCGGAGTCACCTAGTGCAG” was tested, and the binding signal was 10500 fluorescence intensity (a.u.). For “TATACATCATCCCCAATTTTCTCTTCATTCATAATTCATCCGGAGTCACCTAGTGCAG”, the binding signal was 8070 fluorescence intensity (a.u.). In the case of “CCCGCCACGTGCCGTCCTGCCCGTCCGACGTGGCGCCGCGCGGAGTCACCTAGTGCAG”, the binding signal is reported as 9320 fluorescence intensity (a.u.). “AAATTTCACCACACTTTCCAATCTCGTTTAGTTTGGACTACGGAGTCACCTAGTGCAG” was tested, and the binding signal was 8870 fluorescence intensity (a.u.). “GTGGGGTGGTGGTTGATCTCCTCCTCGTCGTCGGATGACACGGAGTCACCTAGTGCAG” was tested, and the binding signal was 12400 fluorescence intensity (a.u.). “CAACAATACTGACACTGGAATTATCCAATGCATTCCTAAACGGAGTCACCTAGTGCAG” was tested, and the binding signal was 8270 fluorescence intensity (a.u.). With “GACGTTCTCATTGTTATTCCCCTACGTTTGTAATCATCTACGGAGTCACCTAGTGCAG” the binding signal was 9460 fluorescence intensity (a.u.). In the case of “TTAGGACCTTATTTGCACTAGTTTTGAGTTTTGATAGTTGCGGAGTCACCTAGTGCAG”, the binding signal is reported as 8600 fluorescence intensity (a.u.). For “ATCTTCACACTCATAATCTCACCCTTAGTTTATCTGATACCGGAGTCACCTAGTGCAG”, the binding signal was 9560 fluorescence intensity (a.u.). With “CTTCACTCGGTCCAGCCACCGCTCGCGCTACGCGCGCGTCCGGAGTCACCTAGTGCAG” the binding signal was 8520 fluorescence intensity (a.u.). For “GCTCTTCAGTCTTTGAGGTGAAATCAATTTTCGTAGCAGTCGGAGTCACCTAGTGCAG”, the binding signal was 8460 fluorescence intensity (a.u.). With “ATTCTATACTCCAGCTTTAAAATTTAACTTTCTCGTTTACCGGAGTCACCTAGTGCAG” the binding signal was 8430 fluorescence intensity (a.u.). For “CTAGCTGATCGGGGTTCTGACTCTACCCATCACGATTTAACGGAGTCACCTAGTGCAG”, the binding signal was 11800 fluorescence intensity (a.u.). For “CTCTCTATCTCTCACCAGTCGGTGGTAGCAACCAGCATCACGGAGTCACCTAGTGCAG”, the binding signal was 10900 fluorescence intensity (a.u.). With “CCCACCACCACTCGCATCACCATCCATCCATCCATCTCCACGGAGTCACCTAGTGCAG” the binding signal was 9400 fluorescence intensity (a.u.). With “GCTTGTTTCTTACCATACGGGTCCACACAAGCAACACATACGGAGTCACCTAGTGCAG” the binding signal was 8680 fluorescence intensity (a.u.). In the case of “ACACAGCTATCTTGCTCTTCTAGCAGTTTCAGGCAGCTCTCGGAGTCACCTAGTGCAG”, the binding signal is reported as 10300 fluorescence intensity (a.u.). “TTTCTCATTTGCGCTCCATTTTATAGATCTAAGTATTAACCGGAGTCACCTAGTGCAG” was tested, and the binding signal was 10700 fluorescence intensity (a.u.). “AACAGCATAACCAGACATATTTTTTGGCTTTTCCTTTTCTCGGAGTCACCTAGTGCAG” was tested, and the binding signal was 9010 fluorescence intensity (a.u.). In the case of “GGTCAAACGTTGGACACGGAAACCCATGGTTTATCTTTTTCGGAGTCACCTAGTGCAG”, the binding signal is reported as 9050 fluorescence intensity (a.u.). With “GAGCAGTCACATCCTCCGCCACCGCCGCCTGCGCCGATCCCGGAGTCACCTAGTGCAG” the binding signal was 8340 fluorescence intensity (a.u.). For “GACAGCCAATCCATCGTCTTCCTCGCGAGCATGGCCATGACGGAGTCACCTAGTGCAG”, the binding signal was 8530 fluorescence intensity (a.u.).
